The target of one test is PRKAA1 (human) (UniProt Q13131). Conditions: compound 10.0 µM.
A further test deals with AKT1 (human) (UniProt P31749). Conditions: compound 10.0 µM.
The target of another test is PRKAA2 (human) (UniProt P54646). Conditions: compound 10.0 µM.
In another test the test system is PRKACA (mouse). Conditions: compound 10.0 µM; accession and sequence are those of the human protein.
The target of another test is FGFR1 (human) (UniProt P11362). Conditions: compound 10.0 µM.
In a further test the target is PIM1 (human) (UniProt P11309). Conditions: compound 10.0 µM.

Sequences of proteins named here, by UniProt entry; tags and fusion partners are left off. A change or cut given only in a name is not applied to a line headed by its entry.
UniProt Q13131: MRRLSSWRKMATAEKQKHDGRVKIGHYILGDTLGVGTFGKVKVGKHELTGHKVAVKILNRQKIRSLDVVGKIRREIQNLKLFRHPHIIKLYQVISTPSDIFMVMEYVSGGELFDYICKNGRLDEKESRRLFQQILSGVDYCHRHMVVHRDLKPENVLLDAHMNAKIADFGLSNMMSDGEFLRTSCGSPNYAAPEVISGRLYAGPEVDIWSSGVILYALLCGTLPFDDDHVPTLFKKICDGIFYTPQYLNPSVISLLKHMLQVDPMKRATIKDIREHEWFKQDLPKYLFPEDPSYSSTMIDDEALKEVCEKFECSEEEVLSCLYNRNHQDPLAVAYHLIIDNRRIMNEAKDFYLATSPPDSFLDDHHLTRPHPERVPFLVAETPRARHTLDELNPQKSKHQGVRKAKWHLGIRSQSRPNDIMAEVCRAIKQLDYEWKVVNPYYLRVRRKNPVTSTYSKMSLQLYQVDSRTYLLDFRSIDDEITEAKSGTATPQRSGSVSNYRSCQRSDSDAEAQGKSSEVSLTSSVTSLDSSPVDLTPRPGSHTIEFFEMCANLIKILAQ
UniProt P31749: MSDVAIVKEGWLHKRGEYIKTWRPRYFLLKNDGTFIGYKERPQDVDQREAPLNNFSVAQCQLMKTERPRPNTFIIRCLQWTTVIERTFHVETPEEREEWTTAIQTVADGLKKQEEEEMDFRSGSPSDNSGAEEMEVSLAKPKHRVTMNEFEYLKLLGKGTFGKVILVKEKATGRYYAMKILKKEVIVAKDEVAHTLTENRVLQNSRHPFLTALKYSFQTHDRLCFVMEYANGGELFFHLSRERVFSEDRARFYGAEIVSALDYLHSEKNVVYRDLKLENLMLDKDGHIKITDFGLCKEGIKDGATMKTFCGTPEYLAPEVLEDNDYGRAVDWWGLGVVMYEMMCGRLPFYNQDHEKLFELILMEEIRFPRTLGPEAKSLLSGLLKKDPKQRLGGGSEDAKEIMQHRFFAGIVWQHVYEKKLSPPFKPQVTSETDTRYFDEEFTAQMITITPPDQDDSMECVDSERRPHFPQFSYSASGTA
UniProt P54646: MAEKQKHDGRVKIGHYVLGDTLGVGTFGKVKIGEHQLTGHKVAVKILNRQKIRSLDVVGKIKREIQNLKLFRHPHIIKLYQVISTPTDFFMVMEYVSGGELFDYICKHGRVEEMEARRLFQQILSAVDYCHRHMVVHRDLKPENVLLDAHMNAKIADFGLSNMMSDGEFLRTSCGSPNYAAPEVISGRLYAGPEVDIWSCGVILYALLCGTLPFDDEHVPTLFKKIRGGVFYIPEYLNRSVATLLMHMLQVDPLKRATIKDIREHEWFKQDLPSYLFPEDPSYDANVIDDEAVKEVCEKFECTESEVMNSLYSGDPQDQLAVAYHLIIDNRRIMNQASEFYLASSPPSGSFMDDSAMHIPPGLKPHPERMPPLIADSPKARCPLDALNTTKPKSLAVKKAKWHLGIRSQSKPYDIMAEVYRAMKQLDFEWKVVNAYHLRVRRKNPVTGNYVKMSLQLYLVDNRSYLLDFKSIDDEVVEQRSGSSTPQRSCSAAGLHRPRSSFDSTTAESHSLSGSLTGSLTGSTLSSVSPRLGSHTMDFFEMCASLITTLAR
UniProt P11362, whole entry, looked up: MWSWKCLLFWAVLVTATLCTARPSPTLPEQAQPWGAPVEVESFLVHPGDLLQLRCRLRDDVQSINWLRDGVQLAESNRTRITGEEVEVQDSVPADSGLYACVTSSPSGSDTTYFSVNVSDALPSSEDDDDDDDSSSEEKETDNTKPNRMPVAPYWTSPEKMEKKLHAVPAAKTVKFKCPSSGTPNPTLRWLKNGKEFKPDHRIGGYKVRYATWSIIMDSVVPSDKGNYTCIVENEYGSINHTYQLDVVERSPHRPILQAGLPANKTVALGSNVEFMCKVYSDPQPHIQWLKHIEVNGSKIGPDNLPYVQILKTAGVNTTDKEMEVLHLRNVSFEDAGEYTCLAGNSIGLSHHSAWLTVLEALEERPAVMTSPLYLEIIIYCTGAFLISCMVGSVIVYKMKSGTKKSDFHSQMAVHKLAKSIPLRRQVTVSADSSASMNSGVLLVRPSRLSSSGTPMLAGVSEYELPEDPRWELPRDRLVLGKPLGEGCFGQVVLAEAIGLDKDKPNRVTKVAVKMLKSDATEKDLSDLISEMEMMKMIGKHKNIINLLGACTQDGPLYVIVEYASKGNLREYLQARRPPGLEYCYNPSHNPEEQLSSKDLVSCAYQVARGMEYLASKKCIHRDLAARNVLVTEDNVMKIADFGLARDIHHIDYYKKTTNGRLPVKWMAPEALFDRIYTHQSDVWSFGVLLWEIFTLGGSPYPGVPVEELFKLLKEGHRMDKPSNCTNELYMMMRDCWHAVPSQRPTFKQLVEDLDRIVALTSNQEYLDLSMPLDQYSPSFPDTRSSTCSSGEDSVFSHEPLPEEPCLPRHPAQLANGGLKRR
UniProt P11309, whole entry, looked up: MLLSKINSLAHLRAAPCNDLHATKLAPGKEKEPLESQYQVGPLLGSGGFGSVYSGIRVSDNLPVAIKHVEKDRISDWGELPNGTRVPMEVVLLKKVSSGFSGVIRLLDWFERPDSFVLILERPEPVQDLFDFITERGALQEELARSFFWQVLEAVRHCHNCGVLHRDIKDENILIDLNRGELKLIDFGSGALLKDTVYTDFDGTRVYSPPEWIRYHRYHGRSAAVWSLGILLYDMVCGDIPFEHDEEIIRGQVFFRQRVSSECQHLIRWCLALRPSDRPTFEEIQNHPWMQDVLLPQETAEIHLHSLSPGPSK

Structures are written as SMILES.

For the molecule `O=C1NC(=O)c2c1c(-c1ccccc1)cc1[nH]c3ccc(O)cc3c21`, the inhibition (commonly the relative decrease from the control value, in per cent) at PRKAA1 (human) was 66%; at AKT1 (human), 0%; on PRKAA2 (human), 71%; with PRKACA (mouse), 10%; against FGFR1 (human), 0%; against PIM1 (human), 85%.
